Data published in PubChem BioAssay AID504847 (National Center for Advancing Translational Sciences (NCATS), 2011).
Values joined by “and” are separate entries in the source; they are usually repeats but may differ in a detail not shown here. Equal entries are not always repeated. The campaign covered roughly 400,000 compounds. About 3,700 (0.93%) were called active. This list was built around the results that the source calls inconclusive (neither active nor inactive); the mix of calls is not that of the screen. Calls come from the whole dose curve; as a rule, active = well fitted inhibition curve with a large enough effect; inconclusive = small, poorly fitted or top-dose-only effect, or another doubt; inactive = no such curve, though single readings can be large or run the other way. Where the call is inconclusive, the potency comes from a doubtful curve fit.

Amino acid sequences for entries named in this document (tags omitted). A change or cut given only in a name is not applied to a line headed by its entry.
UniProt P11473: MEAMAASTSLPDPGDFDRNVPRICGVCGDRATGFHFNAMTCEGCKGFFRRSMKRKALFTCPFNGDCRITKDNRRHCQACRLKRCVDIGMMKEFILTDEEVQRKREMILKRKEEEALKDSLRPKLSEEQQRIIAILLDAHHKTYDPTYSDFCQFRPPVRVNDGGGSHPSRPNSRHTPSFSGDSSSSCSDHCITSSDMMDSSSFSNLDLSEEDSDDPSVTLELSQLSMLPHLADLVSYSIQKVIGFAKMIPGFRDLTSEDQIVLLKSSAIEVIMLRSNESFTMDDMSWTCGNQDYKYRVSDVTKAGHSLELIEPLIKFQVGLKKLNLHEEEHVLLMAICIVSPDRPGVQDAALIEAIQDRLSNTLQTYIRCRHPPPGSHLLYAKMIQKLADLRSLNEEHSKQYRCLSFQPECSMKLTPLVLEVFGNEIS

Target: Vitamin D3 receptor (Homo sapiens) (UniProt P11473)
Assay: Inhibitors of the vitamin D receptor (VDR): qHTS
Settings: VDR-SRC2-3 peptide fluorescence polarization, 2 h; max response, negative = inhibition: stronger effect = lower value
Summary of the method: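 Inhibition of the VDR/SRC2-3 peptide interaction is quantified by fluorescence polarization. Compounds (23 nl, pintool) incubate with the reagents for 2 hours at ambient room temperature.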
% is set by controls: 0 for no effect and ±100 for the full control effect; potency is the fitted concentration of half-maximal effect.

Row | Compound | Potency | max response, negative = inhibition
1 | Cc1ccnc(NC(NC(=O)C(C)C)(C(F)(F)F)C(F)(F)F)c1 | inconclusive: 100 µM [inhibitor, partial curve, poor fit] | 
2 | O=C(NCCc1nc2ccccc2n1CCOc1ccccc1)C1CCCCC1 |  | inactive: -4.07%
3 | O=C1C2C3C=CC(CC3)C2C(=O)N1c1ccccc1[N+](=O)[O-] (centres undefined) |  | inactive: 8.28%
4 | Cc1ccc(/C=C2\SC(N3CCCCC3)=NC2=O)cc1 | inconclusive: 79.4 µM [inhibitor, partial curve] | 
5 | CCC(C)Sc1ccc(-c2nc3ccc(C)cn3c2NCc2ccccc2)cc1OC (centres undefined) |  | inactive: 2.47%
6 | CCC1Nc2ncnc(N3CCOCC3)c2N(Cc2ccc(OC)cc2)C1=O (centres undefined) | active: 79.4 µM | 
7 | c1ccc(Cc2nn3c(COc4ccccc4)nnc3s2)cc1 | active: 79.4 µM | 
8 | CCCCN(C(=O)c1cc(-c2ccco2)nc2ccccc12)c1c(N)n(CCCC)c(=O)[nH]c1=O |  | inactive: -19.6%
9 | CC(=O)OC1CC2C(C)(C)C=CC(=O)[C@@]2(C)C2CC[C@@]3(C)C(c4ccoc4)OC(=O)C4OC43[C@]12C (some centres undefined) | inconclusive: 50.1 µM [inhibitor, partial curve] | 
10 | O=C(O)CCC(=O)Nc1sc2c(c1C(=O)Nc1ccccc1)CCCCC2 | inconclusive: 79.4 µM [inhibitor, partial curve, poor fit] and inconclusive: 89.1 µM [inhibitor, partial curve, poor fit] | 
11 | COc1cc(C(=S)N2CCCC2)ccc1O | inconclusive: 89.1 µM [inhibitor, single point] | 
12 | O=C(NC(=S)N1CCCCC1CO)c1cccs1 (centres undefined) | inconclusive: 89.1 µM [inhibitor, single point] | 
13 | COc1ccc(CSc2n[nH]c(C)n2)cc1[N+](=O)[O-] |  | inactive: 0.934%
14 | COc1ccc2[nH]c(C)c(C(=O)CN3CCc4cc(OC)c(OC)cc4C3)c2c1 |  | inactive: 0.439%
15 | COc1ccc(C(=O)NNC(=O)C2CCCO2)cc1 (centres undefined) | inconclusive: 15.8 µM [inhibitor, partial curve, poor fit] | 
16 | COc1ccccc1NC(=S)NCC1CCCCC1 | inconclusive: 39.8 µM [inhibitor, single point] | 
17 | O=C1NN(c2ccc(F)cc2)C(=O)/C1=C\C=C\c1ccco1 | inconclusive: 39.8 µM [inhibitor, partial curve, poor fit] | 
18 | Cn1c(SCC(=O)NCC2CCCO2)nc2scc(-c3ccccc3)c2c1=O (centres undefined) |  | inactive: -14.9%
19 | CC(C)(C)c1ccc(OC(=O)Cn2c(C(F)(F)F)nc3ccccc32)cc1 |  | inactive: -15.6%
20 | CCS(=O)(=O)c1nc(S(=O)(=O)c2ccc(C)cc2)c(N2CCN(C)CC2)s1 | inconclusive: 100 µM [inhibitor, partial curve, poor fit] | 
21 | CNC(=O)c1ccc(S(=O)(=O)c2ccc(Cl)cc2)c(NC(C)=O)c1 |  | inactive: 6.41%
22 | O=C1CCN(CCCc2ccccc2)CCN1CCO | inconclusive: 89.1 µM [inhibitor, partial curve, poor fit] | 

Row | Compound | Potency | max response, negative = inhibition
23 | COCCNC(=O)C(=O)NNS(=O)(=O)c1ccc2ccccc2c1 | inconclusive: 79.4 µM [inhibitor, partial curve] | 
24 | COc1ccc(C2CC(=O)N(C)c3ccccc3S2)cc1OC (centres undefined) |  | inactive: 0.342%
25 | COc1cc(OC)c(-c2cc(C(=O)NCc3ccc(F)cc3)c3c(-c4ccccc4)[nH]nc3n2)cc1OC |  | inactive: 2.31%
26 | O=C(O)COc1ccc(CCNS(=O)(=O)c2ccccc2)s1 | inconclusive: 89.1 µM [inhibitor, single point] | 
27 | Cc1ccc(F)cc1NC(=O)CSCc1nc2sc(C)c(C)c2c(=O)[nH]1 | inconclusive: 79.4 µM [inhibitor, partial curve, poor fit] | 
28 | Cc1cnc2c3c(cc(Cl)c2c1)-c1ccccc1S(=O)(=O)N3 | inconclusive: 70.8 µM [inhibitor, partial curve, poor fit] | 
29 | O=c1cc(O)n(Cc2ccc(F)cc2)c(=O)[nH]1 | inconclusive: 10 µM [inhibitor, partial curve, poor fit] | 
30 | CCCC(c1nnnn1CCOC)N1CCN(c2cccc(OC)c2)CC1 (centres undefined) |  | inactive: 0.869%
31 | COc1ccc(CNC(=O)CCn2c(=O)c3cccn3c3ccc(F)cc32)cc1 | inconclusive: 39.8 µM [inhibitor, single point] | 
32 | O=C(c1ccco1)N1CCN(c2ccc([N+](=O)[O-])cc2Cl)CC1 | inconclusive: 8.91 µM [inhibitor, partial curve, poor fit] | 
33 | CC(C)=C(C#N)c1nc2ccccc2s1 |  | inactive: 7.78%
34 | O=C1OC(c2ccccc2)=NC12CC2c1ccc(Cl)cc1 (centres undefined) | active: 25.1 µM | 
35 | COc1ccccc1CNc1ccnc(-c2cccc(NS(C)(=O)=O)c2)n1 | inconclusive: 79.4 µM [inhibitor, partial curve, poor fit] | 
36 | O=Cc1ccc(OC(=O)c2cc(Cl)nc3ccccc23)cc1 | inconclusive: 14.1 µM [inhibitor, full curve, poor fit] | 
37 | CCOC(=O)c1ccc(NC(=O)c2c(NCc3sccc3C)sc3c2CCC(C)C3)cc1 (centres undefined) |  | inactive: -12.2%
38 | NC(=O)c1nc(Nc2ccccc2)sc1NC(=O)c1c(F)cccc1F |  | inactive: 3.76%
39 | O=C(/C=C/c1ccc(S(=O)(=O)N2CCOCC2)cc1)NCc1ccc(Cl)cc1 |  | inactive: -16.4%
40 | COCCn1c(Cc2ccccc2)nnc1SCc1nc2ccccc2c(=O)[nH]1 |  | inactive: 19.9%
41 | CN(C)/C=C/C(=O)c1cnc(-c2cccc(Cl)c2)s1 |  | inactive: -28.2%
42 | CCOC(=O)c1c(C)oc2c1c(C(c1cccnc1)N1CCOCC1)c(O)c1ccccc12 (centres undefined) | inconclusive: 50.1 µM [inhibitor, partial curve, poor fit] | 
43 | CC(=O)c1ccccc1OCc1ccc(S(=O)(=O)Cc2ccccc2)cc1 | inconclusive: 44.7 µM [inhibitor, single point] | 
44 | Cc1cccc(C)c1NC(=S)NC(=O)c1ccc(Br)o1 | inconclusive: 28.2 µM [inhibitor, partial curve, poor fit] | 

2 entries from above in a different format.
Row	Compound	Potency	max response, negative = inhibition
31	COc1ccc(CNC(=O)CCn2c(=O)c3cccn3c3ccc(F)cc32)cc1	inconclusive: 39.8 µM [inhibitor, single point]	
37	CCOC(=O)c1ccc(NC(=O)c2c(NCc3sccc3C)sc3c2CCC(C)C3)cc1 (centres undefined)		inactive: -12.2%
